Data as given in patent US20230026259A1, “CA2 COMPOSITIONS AND METHODS FOR TUNABLE REGULATION” (Obsidian Therapeutics, Inc., priority 2019, published 2023).
Some of these results come from one statement about several compounds together.

system: NIH3T3 cells; assay: Destabilization mutant screening of human CA2 linked to GFP, ligand response by FACS (Valdecoxib, Celecoxib, Acetazolamide); assay type: cell-based; conditions: 10 μM Valdecoxib or 10 μM Celecoxib, 24 hours
Description: To identify destabilizing mutations of human CA2 that are stabilized upon ligand binding to CA2, two rounds of mutant screening were performed, using a lentivirus CA2 mutant library provided by Genscript (China). These methods were used to generate a library of mutant polypeptides using mutagenesis primers and error prone PCR. Lentiviral vectors expressing the template, wild-type human CA2 operably linked to GFP(OT-001986) was also provided by Genscript along with the CA2 mutant library. The library was packaged into lentivirus, transduced into NIH3T3 cells at a multiplicity of infection (MOI) of approximately 0.3 and select stable cell pools were derived by selecting with selection marker puromycin.
To identify cell pools containing destabilizing mutants of CA2 that are stabilizing when CA2 is bound to its corresponding ligand, cells were sorted using FACS. In the initial round, the bottom 15% of population that was GFP negative in the absence of ligand was selected. Cells were expanded and then treated with 10 μM Celecoxib for 24 hours and harvested for cell sorting. The top 11% GFP positive cells which were also responsive to ligand treatment compared to untreated were collected. Celecoxib was removed from the cultures and replaced with DMSO. […] Genomic DNA was isolated and amplified CA2 mutants were reintroduced to the lentiviral vectors where CA2 was operably linked to GFP. The constructs were transduced into NIH3T3 cells with lentivirus vectors for each clone. The cells were treated with 10 μM Valdecoxib or 10 μM Celecoxib for 24 hours and analyzed by FACS. […] In Table 25, the Construct ID (OT-XXXXXX) refers to the construct which includes the referenced CA2 mutant and the Library ID (LibCXXXXXX) refers to the CA2 mutant itself.
The response of NIH3T3 cells to varying doses of Valdecoxib or Celecoxib for 24 hours was measured and analyzed by FACS.
Clones treated with different ligands were compared to examine the behavior of each mutant with the ligands.

Row | Substance | stabilization ratio in response to ligand treatment
1 | CA2 (aa 2-260 of WT, L156H) [LibC000208] | greater than 2
2 | CA2 (aa 2-260 of WT, L156H, S172C, F178Y, E186D) [LibC000193] | greater than 2
3 | CA2 (aa 2-260 of WT, L197P) [LibC000186] | greater than 2
4 | CA2 (aa 2-260 of WT, N61R, K80M, K212N, N231T, L250P) [LibC000198] | greater than 2
5 | CA2 (aa 2-260 of WT, R27L, T87I, H122Y, N252D) [LibC000226] | greater than 2
